Test results reported in article PMC9579194 (Nature Communications, 2022).

Assay: general procedure: Fmoc solid-phase peptide synthesis; Rink amide resin (0.26 mmol/g); HCTU/DIEA
Conditions: late stage modification step

Substance | step yield (thioether ring) | step yield
TAMRA labeled CP1-L1C-C6F5 | 31% | –
cyclic peptide 2-TAMRA | – | 19%
